For nine sequences, Kd, binding result and IC50 results are on record in patent US20160177307.

Chains of the proteins cited; added tags and fusions are not shown. Chains listed by the source or under a name are the forms on record and can include a tag or linker. Residues count along the entry.
UniProt P01127, 82-190: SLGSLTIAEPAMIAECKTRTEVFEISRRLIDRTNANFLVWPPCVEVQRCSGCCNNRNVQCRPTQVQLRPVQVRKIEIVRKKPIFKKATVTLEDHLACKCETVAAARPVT
VEGF-164 (Rattus norvegicus), one chain, as listed by the source: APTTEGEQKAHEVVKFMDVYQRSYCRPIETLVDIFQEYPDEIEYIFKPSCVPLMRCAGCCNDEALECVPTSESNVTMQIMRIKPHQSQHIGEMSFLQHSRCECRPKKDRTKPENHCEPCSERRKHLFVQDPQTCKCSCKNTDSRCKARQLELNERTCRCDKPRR
VEGF-121 (Homo sapiens), one chain, as listed by the source: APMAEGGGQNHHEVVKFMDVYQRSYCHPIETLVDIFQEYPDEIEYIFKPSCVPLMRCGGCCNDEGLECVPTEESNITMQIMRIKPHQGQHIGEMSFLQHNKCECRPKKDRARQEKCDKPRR
VEGF-165 (Homo sapiens), one chain, as listed by the source: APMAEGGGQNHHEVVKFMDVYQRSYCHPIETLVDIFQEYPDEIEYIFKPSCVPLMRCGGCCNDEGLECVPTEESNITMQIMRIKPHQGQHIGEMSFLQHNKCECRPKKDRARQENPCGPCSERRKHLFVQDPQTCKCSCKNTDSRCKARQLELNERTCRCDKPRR

One may read the Kd as a measure of binding affinity in units of concentration. The term IC50 denotes the concentration that gives 50% inhibition.

The test system of series [1] is VEGF-164 (Rattus norvegicus). Description: filter binding. The following applies: P=Nap-dU; NB up to 100 nM; purified recombinant protein; single-stranded DNA.
A further series concerns VEGF-165 (Homo sapiens). The experiment in a line: filter binding. The following applies: single-stranded DNA; for Kd: purified recombinant protein.
Another series relates to VEGF-121 (Homo sapiens). The experiment in a line: filter binding. The following applies: protein details: R&D Systems, single-stranded DNA; for binding result: label: 5'-32P.
In series [2] the target is PDGF-BB (platelet-derived growth factor BB) (Homo sapiens) (UniProt P01127). The experiment in a line: activity in cells. The settings on record: BndU, PDGFRb phosphorylation, Hs27, purified recombinant protein, single-stranded DNA.
Series [3] has the same target. Description: structure. The following applies: purified recombinant protein, single-stranded DNA, variant of 4149-8_130.
[4] abbreviates: P=Nap-dU, NB up to 100 nM, purified recombinant protein.

For part of these data: A negative result means that nothing was seen under these conditions. For part of these data: For at least one entry, the source does not settle the construct or the ends of the probe.

As to AGCCGTTCAAGTGCTTGTAGGATTT [4867-31_57], the Kd in series [1] was over 100 nM; with VEGF-165 (Homo sapiens) (P=Nap-dU, NB up to 100 nM), over 100 nM; in the series on VEGF-121 (Homo sapiens) (setting [4]) it was over 100 nM.

With TTACGTTACCGCGTTTATAGCG [4149-8_379], the binding result in the series with VEGF-165 (Homo sapiens) (BndU at 1,8,16,17,20, MBndU at 2, Heg at 5, C3 at 11, 2'-OMe at A3,C12,A19,A21,G24 and 2'-OMe-BnU at 7,18, NB, specificity control, purified recombinant …, label: 5'-32P, variant of 4149-8_38) is given as “no binding”; in the series on VEGF-121 (Homo sapiens) (BndU at 1,8,16,17,20, MBndU at 2, Heg at 5, C3 at 11, 2'-OMe at A3,C12,A19,A21,G24 and 2'-OMe-BnU at 7,18, NB, specificity control, purified recombinant …, variant of 4149-8_38), “no binding”. Also, the 50% inhibitory concentration (IC50) in series [2] (MBndU 2, 2'-OMe 3,7,12,18,19,21,24, Heg 5, C3 11) turned out to be 1.6 nM.

Turning to AGCCGTTCAAGTGCTTGTAGGATTTA [4867-31_56], the Kd in series [1] was over 100 nM; in the series on VEGF-165 (Homo sapiens) (P=Nap-dU, NB up to 100 nM), over 100 nM; in the series with VEGF-121 (Homo sapiens) (setting [4]), over 100 nM.

Turning to “CAGCCGTTCAAGTGCTTGTAGGATTTA [4867-31_49]”, the Kd is over 100 nM in series [1]; over 100 nM with VEGF-165 (Homo sapiens) (NapdU at P, NB); over 100 nM in the series with VEGF-121 (Homo sapiens) (NapdU at P, NB, purified recombinant protein).

Regarding “TTACGTTACACGCGTTTATAGCG [4149-8_260 (SL5)]”, the binding result in series [3] (BndU at 1,2,7,8,16,20, PedU at 17, ThdU at 18, 2'-OMe A11,G24, co-crystal 2.2 A, PDB 4HQU, two aptamers per homodimer) is “binds”.

For “TTACGTTACCGCGTTTATAGCGCCGTTCAAGTGCTTGTAGGATTTAAATGG [4149-8_401]”, the half-maximal inhibitory concentration (IC50) in series [2] (PDGF_379-3Heg-VEGF_192, NapdU, MBndU, 2'-OMe) is 2.4 nM.

As for “TTACGTTACACGCGTTTATAGCG [4149-8_255 (SL4)]”, in series [3] (iBudU at 8 and other modified dU positions, co-crystal 2.3 A, PDB 4HQX), the binding result is on record as “binds”.

With “AGCCGTTCAAGTGCTTGTAGGATTTAAA [4867-31_54]”, the Kd was over 100 nM in series [1] and over 100 nM in the series with VEGF-165 (Homo sapiens) (P=Nap-dU, NB up to 100 nM). The binding result in the series on VEGF-121 (Homo sapiens) (all P are NapdU, rest DNA, NB, purified recombinant protein, variant of 4867-31_43) is “no binding”.

With “AGCCGTTCAAGTGCTTGTAGGATTTAA [4867-31_55]”, the Kd in series [1] is over 100 nM; with VEGF-165 (Homo sapiens) (P=Nap-dU, NB up to 100 nM) it was over 100 nM; in the series on VEGF-121 (Homo sapiens) (setting [4]), over 100 nM.
